Further values from the same series stand in other lists.
Columns and labels:
Format in all cases: cell-based
[1] = target: T1, RNA polymerase II (Mus musculus) (UniProt P08775+Q8CFI7+P97760+A0A3Q4L2S8+Q80UW8+P61219+P62488+Q923G2+P60898+O08740+Q63871+P62876); test: Inhibition of RNA polymerase II in mouse B16-F1 migrating cells assessed as fold change in Ndufv3-RNA stability at 0.1 mM measured by ChIP-seq analysis relative to control cells
[2] = target: T1, RNA polymerase II (Mus musculus); test: Inhibition of RNA polymerase II in mouse B16-F1 migrating cells assessed as fold change in Egln1-RNA stability at 0.1 mM measured by ChIP-seq analysis relative to control cells
[3] = target: T1, RNA polymerase II (Mus musculus); test: Inhibition of RNA polymerase II in mouse B16-F1 migrating cells assessed as fold change in Nckap5l-RNA stability at 0.1 mM measured by ChIP-seq analysis relative to control cells
[4] = target: T1, RNA polymerase II (Mus musculus); test: Inhibition of RNA polymerase II in mouse B16-F1 migrating cells assessed as fold change in Cope-RNA stability at 0.1 mM measured by ChIP-seq analysis relative to control cells
[5] = target: T1, RNA polymerase II (Mus musculus); test: Inhibition of RNA polymerase II in mouse B16-F1 migrating cells assessed as fold change in Snta1-RNA stability at 0.1 mM measured by ChIP-seq analysis relative to control cells
[6] = target: T1, RNA polymerase II (Mus musculus); test: Inhibition of RNA polymerase II in mouse B16-F1 migrating cells assessed as fold change in Twsg1-RNA stability at 0.1 mM measured by ChIP-seq analysis relative to control cells
[7] = target: T1, RNA polymerase II (Mus musculus); test: Inhibition of RNA polymerase II in mouse B16-F1 migrating cells assessed as fold change in Rpgrip1l-RNA stability at 0.1 mM measured by ChIP-seq analysis relative to control cells
[8] = target: T1, RNA polymerase II (Mus musculus); test: Inhibition of RNA polymerase II in mouse B16-F1 migrating cells assessed as fold change in Ap1ar-RNA stability at 0.1 mM measured by ChIP-seq analysis relative to control cells
[9] = target: T1, RNA polymerase II (Mus musculus); test: Inhibition of RNA polymerase II in mouse B16-F1 migrating cells assessed as fold change in Creb1-RNA stability at 0.1 mM measured by ChIP-seq analysis relative to control cells
[10] = target: T1, RNA polymerase II (Mus musculus); test: Inhibition of RNA polymerase II in mouse B16-F1 migrating cells assessed as fold change in Zfp146-RNA stability at 0.1 mM measured by ChIP-seq analysis relative to control cells
[11] = target: T1, RNA polymerase II (Mus musculus); test: Inhibition of RNA polymerase II in mouse B16-F1 migrating cells assessed as fold change in Cep295-RNA stability at 0.1 mM measured by ChIP-seq analysis relative to control cells
[12] = target: T1, RNA polymerase II (Mus musculus); test: Inhibition of RNA polymerase II in mouse B16-F1 migrating cells assessed as fold change in Mut-RNA stability at 0.1 mM measured by ChIP-seq analysis relative to control cells
[13] = target: T1, RNA polymerase II (Mus musculus); test: Inhibition of RNA polymerase II in mouse B16-F1 migrating cells assessed as fold change in Tmem56-RNA stability at 0.1 mM measured by ChIP-seq analysis relative to control cells
[14] = target: T1, RNA polymerase II (Mus musculus); test: Inhibition of RNA polymerase II in mouse B16-F1 migrating cells assessed as fold change in Nexn-RNA stability at 0.1 mM measured by ChIP-seq analysis relative to control cells
[15] = target: T1, RNA polymerase II (Mus musculus); test: Inhibition of RNA polymerase II in mouse B16-F1 migrating cells assessed as fold change in Zfx-RNA stability at 0.1 mM measured by ChIP-seq analysis relative to control cells
[16] = target: T1, RNA polymerase II (Mus musculus); test: Inhibition of RNA polymerase II in mouse B16-F1 migrating cells assessed as fold change in Zfp946-RNA stability at 0.1 mM measured by ChIP-seq analysis relative to control cells
[17] = target: Histone-lysine N-methyltransferase EZH2 (Mus musculus) (UniProt Q61188); test: Inhibition of EZH2 in mouse B16-F1 migrating cells assessed as fold change in H3K27me3-dependent regulated Ero1l-mRNA expression at 3 uM measured by ChIP-seq analysis relative to control cells
[18] = target: Histone-lysine N-methyltransferase EZH2 (Mus musculus) (UniProt Q61188); test: Inhibition of EZH2 in mouse B16-F1 migrating cells assessed as fold change in H3K27me3-dependent regulated Gpr37-mRNA expression at 3 uM measured by ChIP-seq analysis relative to control cells
[19] = target: Histone-lysine N-methyltransferase EZH2 (Mus musculus) (UniProt Q61188); test: Inhibition of EZH2 in mouse B16-F1 migrating cells assessed as fold change in H3K27me3-independent regulated Lef1-mRNA expression at 3 uM measured by ChIP-seq analysis relative to control cells
[20] = target: Histone-lysine N-methyltransferase EZH2 (Mus musculus) (UniProt Q61188); test: Inhibition of EZH2 in mouse B16-F1 migrating cells assessed as fold change in H3K27me3-independent regulated Rcn3-mRNA expression at 3 uM measured by ChIP-seq analysis relative to control cells
[21] = target: Histone-lysine N-methyltransferase EZH2 (Mus musculus) (UniProt Q61188); test: Inhibition of EZH2 in mouse B16-F1 migrating cells assessed as fold change in H3K27me3-independent regulated Plekhg1-mRNA expression at 3 uM measured by ChIP-seq analysis relative to control cells
[22] = target: Histone-lysine N-methyltransferase EZH2 (Mus musculus) (UniProt Q61188); test: Inhibition of EZH2 in mouse B16-F1 migrating cells assessed as fold change in H3K27me3-independent regulated Ankrd34a-mRNA expression at 3 uM measured by ChIP-seq analysis relative to control cells
[23] = target: Histone-lysine N-methyltransferase EZH2 (Mus musculus) (UniProt Q61188); test: Inhibition of EZH2 in mouse B16-F1 migrating cells assessed as fold change in H3K27me3-buffered regulated Gapdh-mRNA expression at 3 uM measured by ChIP-seq analysis relative to control cells
[24] = target: Histone-lysine N-methyltransferase EZH2 (Mus musculus) (UniProt Q61188); test: Inhibition of EZH2 in mouse B16-F1 migrating cells assessed as fold change in H3K27me3-buffered regulated Ccp110-mRNA expression at 3 uM measured by ChIP-seq analysis relative to control cells
[25] = target: Histone-lysine N-methyltransferase EZH2 (Mus musculus) (UniProt Q61188); test: Inhibition of EZH2 in mouse B16-F1 migrating cells assessed as fold change in H3K27me3-buffered regulated Rrnad1-mRNA expression at 3 uM measured by ChIP-seq analysis relative to control cells
[26] = target: Histone-lysine N-methyltransferase EZH2 (Mus musculus) (UniProt Q61188); test: Inhibition of EZH2 in mouse B16-F1 migrating cells assessed as fold change in H3K27me3-buffered regulated Zbtb26-mRNA expression at 3 uM measured by ChIP-seq analysis relative to control cells
[27] = target: Histone-lysine N-methyltransferase EZH2 (Mus musculus) (UniProt Q61188); test: Inhibition of EZH2 in mouse B16-F1 migrating cells assessed as fold change in H3K27me3-buffered regulated Mettl17-mRNA expression at 3 uM measured by ChIP-seq analysis relative to control cells
[28] = target: Histone-lysine N-methyltransferase EZH2 (Mus musculus) (UniProt Q61188); test: Inhibition of EZH2 in mouse B16-F1 migrating cells assessed as fold change in H3K27me3-buffered regulated Zic2-mRNA expression at 3 uM measured by ChIP-seq analysis relative to control cells
[29] = target: Histone-lysine N-methyltransferase EZH2 (Mus musculus) (UniProt Q61188); test: Inhibition of EZH2 in mouse B16-F1 migrating cells assessed as fold change in H3K27me3-buffered regulated Pcdh17-mRNA expression at 3 uM measured by ChIP-seq analysis relative to control cells
[30] = target: Histone-lysine N-methyltransferase EZH2 (Mus musculus) (UniProt Q61188); test: Inhibition of EZH2 in mouse B16-F1 migrating cells assessed as fold change in H3K27me3-buffered regulated Ccdc125-mRNA expression at 3 uM measured by ChIP-seq analysis relative to control cells

Protein sequences, listed by entry. Tags and fused reporters are not part of them.
UniProt Q61188, whole entry: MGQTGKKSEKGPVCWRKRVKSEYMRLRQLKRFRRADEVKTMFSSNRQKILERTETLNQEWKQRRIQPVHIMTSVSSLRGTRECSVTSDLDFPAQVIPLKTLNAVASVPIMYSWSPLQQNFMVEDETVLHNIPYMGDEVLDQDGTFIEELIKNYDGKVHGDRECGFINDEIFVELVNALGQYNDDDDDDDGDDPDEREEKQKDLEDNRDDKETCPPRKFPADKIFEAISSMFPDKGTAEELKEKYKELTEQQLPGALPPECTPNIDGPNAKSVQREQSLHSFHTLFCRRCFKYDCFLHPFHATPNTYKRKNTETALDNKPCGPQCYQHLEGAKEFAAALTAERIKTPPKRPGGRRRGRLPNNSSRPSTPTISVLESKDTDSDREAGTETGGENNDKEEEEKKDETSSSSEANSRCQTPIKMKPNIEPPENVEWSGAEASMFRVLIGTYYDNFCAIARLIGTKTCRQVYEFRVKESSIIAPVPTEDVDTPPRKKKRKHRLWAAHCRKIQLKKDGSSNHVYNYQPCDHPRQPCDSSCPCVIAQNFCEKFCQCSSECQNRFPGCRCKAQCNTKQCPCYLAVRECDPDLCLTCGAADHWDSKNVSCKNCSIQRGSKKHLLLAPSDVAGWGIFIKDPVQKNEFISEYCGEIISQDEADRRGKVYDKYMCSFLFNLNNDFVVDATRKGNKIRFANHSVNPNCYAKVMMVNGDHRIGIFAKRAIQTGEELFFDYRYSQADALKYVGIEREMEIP

OC[C@H]1O[C@@H](n2cnc3cc(Cl)c(Cl)cc32)[C@H](O)[C@@H]1O
log2FC [1]: 0.89
log2FC [2]: 0.86
log2FC [3]: 0.68
log2FC [4]: 0.46
log2FC [5]: 0.46
log2FC [6]: -0.45
log2FC [7]: -0.46
log2FC [8]: -0.46
log2FC [9]: -0.47
log2FC [10]: -0.54
log2FC [11]: -0.54
log2FC [12]: -0.59
log2FC [13]: -0.66
log2FC [14]: -0.87
log2FC [15]: -0.96
log2FC [16]: -1.13

CCCc1cc(C)[nH]c(=O)c1CNC(=O)c1cc(-c2ccnc(N3CCN(C)CC3)c2)cc2c1cnn2C(C)C
log2FC [17]: 0.36
log2FC [18]: -0.17
log2FC [19]: 1.23
log2FC [20]: 0.57
log2FC [21]: -0.56
log2FC [22]: -0.89
log2FC [23]: 0.44
log2FC [24]: -0.39
log2FC [25]: -0.48
log2FC [26]: -0.48
log2FC [27]: -0.5
log2FC [28]: -0.54
log2FC [29]: -0.61
log2FC [30]: -0.74
